# Measured values as given in the supplement of paper PMC8728848.
# The other results are listed elsewhere or left out.
# B1: EUL D1A second (Oryza sativa) (protein)
# chain: GAATACTIGGVPVHTVRVFSAAGEDYCLTVRNGTACLAPKNPRDDYQHWIKDMRHSNKIRDEEGYPAFALVNKVTGEAIKHSTGQGHPVKLVPYNPEYQDESVLWTESKDVGKGFRCIRMVNNIYLNFDAFHGDKDHGGIHDGTEIVLWKWCEGDNQRWKILPWILEQKLISEEDLNSAVDHHHHHH
# Key:
# Experiment in all cases: glycan array binding signal (z-score within array); higher = stronger binding
# Settings in all cases: glycan notation: IUPAC condensed, linker removed
# [1] = target: Fuc(a1-2)[Gal(a1-3)]Gal(b1-4)GlcNAc(b1-2)Man(a1-3)[Fuc(a1-2)[Gal(a1-3)]Gal(b1-4)GlcNAc(b1-2)Man(a1-6)]Man(b1-4)GlcNAc(b1-4)[Fuc(a1-6)]GlcNAc
# In short: (§1)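 From the Consortium for Functional Glycomics database, 3228 arrays were curated, keeping only those whose protein sequence was available. Binding is given as a within-array Z-score averaged across arrays sharing a protein sequence and across linkers. Negative Z-scores can be read as non-binding.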
# [2] = target: Fuc(a1-2)[Gal(a1-3)]Gal(b1-4)GlcNAc(b1-3)GalNAc
# In short: as §1
# [3] = target: Fuc(a1-2)[Gal(a1-3)]Gal(b1-4)GlcNAc(b1-3)[Fuc(a1-2)[Gal(a1-3)]Gal(b1-4)GlcNAc(b1-6)]GalNAc
# In short: as §1
# [4] = target: Fuc(a1-2)[Gal(a1-3)]Gal(b1-4)GlcNAc(b1-6)GalNAc
# In short: as §1
# [5] = target: Fuc(a1-2)[Gal(a1-3)]Gal(b1-4)[Fuc(a1-3)]Glc
# In short: as §1
# [6] = target: Fuc(a1-2)[Gal(a1-3)]Gal(b1-4)[Fuc(a1-3)]GlcNAc
# In short: as §1
# [7] = target: Fuc(a1-2)[Gal(a1-3)]Gal(b1-4)[Fuc(a1-3)]GlcNAc(b1-3)GalNAc
# In short: as §1
# [8] = target: Fuc(a1-2)[Gal(a1-4)]Gal(b1-4)GlcNAc
# In short: as §1
# [9] = target: Fuc(a1-2)[GalNAc(a1-3)]Gal
# In short: as §1
# [10] = target: Fuc(a1-2)[GalNAc(a1-3)]Gal(b1-3)GalNAc(a1-3)[Fuc(a1-2)]Gal(b1-4)GlcNAc
# In short: as §1
# [11] = target: Fuc(a1-2)[GalNAc(a1-3)]Gal(b1-3)GalNAc(b1-3)Gal(a1-4)Gal(b1-4)Glc
# In short: as §1
# [12] = target: Fuc(a1-2)[GalNAc(a1-3)]Gal(b1-3)GlcNAc
# In short: as §1
# [13] = target: Fuc(a1-2)[GalNAc(a1-3)]Gal(b1-3)GlcNAc(b1-2)Man(a1-3)[Fuc(a1-2)[GalNAc(a1-3)]Gal(b1-3)GlcNAc(b1-2)Man(a1-6)]Man(b1-4)GlcNAc(b1-4)GlcNAc
# In short: as §1
# [14] = target: Fuc(a1-2)[GalNAc(a1-3)]Gal(b1-3)GlcNAc(b1-2)Man(a1-3)[Fuc(a1-2)[GalNAc(a1-3)]Gal(b1-3)GlcNAc(b1-2)Man(a1-6)]Man(b1-4)GlcNAc(b1-4)[Fuc(a1-6)]GlcNAc
# In short: as §1
# [15] = target: Fuc(a1-2)[GalNAc(a1-3)]Gal(b1-3)GlcNAc(b1-3)GalNAc
# In short: as §1
# [16] = target: Fuc(a1-2)[GalNAc(a1-3)]Gal(b1-3)GlcNAc(b1-6)GalNAc
# In short: as §1
# [17] = target: Fuc(a1-2)[GalNAc(a1-3)]Gal(b1-4)Glc
# In short: as §1
# [18] = target: Fuc(a1-2)[GalNAc(a1-3)]Gal(b1-4)GlcNAc
# In short: as §1
# [19] = target: Fuc(a1-2)[GalNAc(a1-3)]Gal(b1-4)GlcNAc(b1-2)Man
# In short: as §1
# [20] = target: Fuc(a1-2)[GalNAc(a1-3)]Gal(b1-4)GlcNAc(b1-2)Man(a1-3)[Fuc(a1-2)[GalNAc(a1-3)]Gal(b1-4)GlcNAc(b1-2)Man(a1-6)]Man(b1-4)GlcNAc(b1-4)GlcNAc
# In short: as §1
# [21] = target: Fuc(a1-2)[GalNAc(a1-3)]Gal(b1-4)GlcNAc(b1-2)Man(a1-3)[Fuc(a1-2)[GalNAc(a1-3)]Gal(b1-4)GlcNAc(b1-2)Man(a1-6)]Man(b1-4)GlcNAc(b1-4)[Fuc(a1-6)]GlcNAc
# In short: as §1
# [22] = target: Fuc(a1-2)[GalNAc(a1-3)]Gal(b1-4)GlcNAc(b1-3)Gal(b1-4)GlcNAc
# In short: as §1
# [23] = target: Fuc(a1-2)[GalNAc(a1-3)]Gal(b1-4)GlcNAc(b1-3)Gal(b1-4)GlcNAc(b1-3)Gal(b1-4)GlcNAc
# In short: as §1
# [24] = target: Fuc(a1-2)[GalNAc(a1-3)]Gal(b1-4)GlcNAc(b1-3)GalNAc
# In short: as §1
# [25] = target: Fuc(a1-2)[GalNAc(a1-3)]Gal(b1-4)GlcNAc(b1-3)[Fuc(a1-2)[GalNAc(a1-3)]Gal(b1-4)GlcNAc(b1-6)]GalNAc
# In short: as §1
# [26] = target: Fuc(a1-2)[GalNAc(a1-3)]Gal(b1-4)GlcNAc(b1-6)GalNAc
# In short: as §1
# [27] = target: Fuc(a1-2)[GalNAc(a1-3)]Gal(b1-4)[Fuc(a1-3)]GlcNAc
# In short: as §1
# [28] = target: Fuc(a1-2)[GalNAc(a1-3)]Gal(b1-4)[Fuc(a1-3)]GlcNAc(b1-3)GalNAc
# In short: as §1
# [29] = target: Fuc(a1-2)[GalNAc(a1-4)]Gal(b1-4)GlcNAc
# In short: as §1
# [30] = target: Fuc(a1-2)[GalNAc(b1-3)]Gal
# In short: as §1
# Fuc(a1-3)GlcNAc = target: Fuc(a1-3)GlcNAc
# In short: as §1
# [31] = target: Fuc(a1-3)[Gal(b1-4)]Glc6S
# In short: as §1
# [32] = target: Fuc(a1-3)[Gal(b1-4)]GlcNAc
# In short: as §1
# [33] = target: Fuc(a1-3)[Gal(b1-4)]GlcNAc(b1-2)Man
# In short: as §1
# [34] = target: Fuc(a1-3)[Gal(b1-4)]GlcNAc(b1-2)Man(a1-3)[Fuc(a1-3)[Gal(b1-4)]GlcNAc(b1-2)Man(a1-6)]Man(b1-4)GlcNAc(b1-4)GlcNAc
# In short: as §1
# [35] = target: Fuc(a1-3)[Gal(b1-4)]GlcNAc(b1-2)Man(a1-3)[Fuc(a1-3)[Gal(b1-4)]GlcNAc(b1-2)Man(a1-6)]Man(b1-4)GlcNAc(b1-4)[Fuc(a1-6)]GlcNAc
# In short: as §1
# [36] = target: Fuc(a1-3)[Gal(b1-4)]GlcNAc(b1-3)Gal(b1-3)[Fuc(a1-4)]GlcNAc
# In short: as §1
# [37] = target: Fuc(a1-3)[Gal(b1-4)]GlcNAc(b1-3)Gal(b1-4)[Fuc(a1-3)]GlcNAc
# In short: as §1
# [38] = target: Fuc(a1-3)[Gal(b1-4)]GlcNAc(b1-3)Gal(b1-4)[Fuc(a1-3)]GlcNAc(b1-3)Gal(b1-4)[Fuc(a1-3)]GlcNAc
# In short: as §1
# [39] = target: Fuc(a1-3)[Gal(b1-4)]GlcNAc(b1-3)GalNAc
# In short: as §1
# [40] = target: Fuc(a1-3)[Gal(b1-4)]GlcNAc(b1-6)GalNAc
# In short: as §1
# [41] = target: Fuc(a1-3)[Gal(b1-4)]GlcNAc(b1-6)[Gal(b1-3)GlcNAc(b1-3)]Gal(b1-4)Glc
# In short: as §1
# [42] = target: Fuc(a1-3)[Gal(b1-4)]GlcNAc6S
# In short: as §1
# [43] = target: Fuc(a1-3)[Gal3S(b1-4)]Glc
# In short: as §1
# [44] = target: Fuc(a1-3)[Gal3S(b1-4)]GlcNAc
# In short: as §1
# [45] = target: Fuc(a1-3)[Gal3S(b1-4)]GlcNAc6S
# In short: as §1
# [46] = target: Fuc(a1-3)[GalNAc(b1-4)]GlcNAc
# In short: as §1
# [47] = target: Fuc(a1-3)[GalNAc(b1-4)]GlcNAc6S
# In short: as §1
# Fuc(a1-4)GlcNAc = target: Fuc(a1-4)GlcNAc
# In short: as §1
# Fuc(b1-3)GlcNAc = target: Fuc(b1-3)GlcNAc
# In short: as §1
# Gal(a1-2)Gal = target: Gal(a1-2)Gal
# In short: as §1
# Gal(a1-3)Gal = target: Gal(a1-3)Gal
# In short: as §1
# Gal(a1-3)Gal(b1-3)GlcNAc = target: Gal(a1-3)Gal(b1-3)GlcNAc
# In short: as §1
# [48] = target: Gal(a1-3)Gal(b1-3)GlcNAc(b1-2)Man
# In short: as §1
# [49] = target: Gal(a1-3)Gal(b1-3)GlcNAc(b1-2)Man(a1-3)[Gal(a1-3)Gal(b1-3)GlcNAc(b1-2)Man(a1-6)]Man(b1-4)GlcNAc(b1-4)GlcNAc
# In short: as §1
# [50] = target: Gal(a1-3)Gal(b1-3)GlcNAc(b1-3)GalNAc
# In short: as §1
# [51] = target: Gal(a1-3)Gal(b1-3)GlcNAc(b1-6)GalNAc
# In short: as §1
# [52] = target: Gal(a1-3)Gal(b1-3)[Fuc(a1-4)]GlcNAc(b1-2)Man(a1-3)[Gal(a1-3)Gal(b1-3)[Fuc(a1-4)]GlcNAc(b1-2)Man(a1-6)]Man(b1-4)GlcNAc(b1-4)GlcNAc
# In short: as §1
# Gal(a1-3)Gal(b1-4)Glc = target: Gal(a1-3)Gal(b1-4)Glc
# In short: as §1
# Gal(a1-3)Gal(b1-4)GlcNAc = target: Gal(a1-3)Gal(b1-4)GlcNAc
# In short: as §1
binder,measurement,setting,value
B1,glycan array binding signal (z-score),[1],-0.587
same,glycan array binding signal (z-score),[2],0.369
same,glycan array binding signal (z-score),[3],0.599
same,glycan array binding signal (z-score),[4],-0.575
same,glycan array binding signal (z-score),[5],-0.45
same,glycan array binding signal (z-score),[6],-0.232
same,glycan array binding signal (z-score),[7],0.87
same,glycan array binding signal (z-score),[8],1.5
same,glycan array binding signal (z-score),[9],-0.789
same,glycan array binding signal (z-score),[10],1.47
same,glycan array binding signal (z-score),[11],-0.103
same,glycan array binding signal (z-score),[12],0.031
same,glycan array binding signal (z-score),[13],0.176
same,glycan array binding signal (z-score),[14],-0.853
same,glycan array binding signal (z-score),[15],0.724
same,glycan array binding signal (z-score),[16],-1.49
same,glycan array binding signal (z-score),[17],-0.583
same,glycan array binding signal (z-score),[18],-1.07
same,glycan array binding signal (z-score),[19],-0.902
same,glycan array binding signal (z-score),[20],-0.125
same,glycan array binding signal (z-score),[21],0.87
same,glycan array binding signal (z-score),[22],-0.086
same,glycan array binding signal (z-score),[23],0.157
same,glycan array binding signal (z-score),[24],0.798
same,glycan array binding signal (z-score),[25],-0.479
same,glycan array binding signal (z-score),[26],-0.558
same,glycan array binding signal (z-score),[27],1.06
same,glycan array binding signal (z-score),[28],1.89
same,glycan array binding signal (z-score),[29],0.772
same,glycan array binding signal (z-score),[30],-0.072
same,glycan array binding signal (z-score),Fuc(a1-3)GlcNAc,-0.469
same,glycan array binding signal (z-score),[31],-0.136
same,glycan array binding signal (z-score),[32],-0.772
same,glycan array binding signal (z-score),[33],0.112
same,glycan array binding signal (z-score),[34],-0.382
same,glycan array binding signal (z-score),[35],2.4
same,glycan array binding signal (z-score),[36],-0.819
same,glycan array binding signal (z-score),[37],-0.106
same,glycan array binding signal (z-score),[38],-0.846
same,glycan array binding signal (z-score),[39],0.566
same,glycan array binding signal (z-score),[40],-0.945
same,glycan array binding signal (z-score),[41],-0.669
same,glycan array binding signal (z-score),[42],-0.105
same,glycan array binding signal (z-score),[43],-1.53
same,glycan array binding signal (z-score),[44],0.625
same,glycan array binding signal (z-score),[45],-1.36
same,glycan array binding signal (z-score),[46],-0.036
same,glycan array binding signal (z-score),[47],-0.662
same,glycan array binding signal (z-score),Fuc(a1-4)GlcNAc,-0.27
same,glycan array binding signal (z-score),Fuc(b1-3)GlcNAc,-0.085
same,glycan array binding signal (z-score),Gal(a1-2)Gal,-1.3
same,glycan array binding signal (z-score),Gal(a1-3)Gal,-0.873
same,glycan array binding signal (z-score),Gal(a1-3)Gal(b1-3)GlcNAc,-0.139
same,glycan array binding signal (z-score),[48],0.338
same,glycan array binding signal (z-score),[49],1.69
same,glycan array binding signal (z-score),[50],-1.62
same,glycan array binding signal (z-score),[51],-0.169
same,glycan array binding signal (z-score),[52],0.542
same,glycan array binding signal (z-score),Gal(a1-3)Gal(b1-4)Glc,-0.063
same,glycan array binding signal (z-score),Gal(a1-3)Gal(b1-4)GlcNAc,-1.66

# Reprinted at random: three records from the list, in no set order.
binder,measurement,setting,value
B1,glycan array binding signal (z-score),[17],-0.583
same,glycan array binding signal (z-score),[20],-0.125
same,glycan array binding signal (z-score),Gal(a1-3)Gal(b1-4)Glc,-0.063

# Two entries from above, with bars between the fields.
binder | measurement | setting | value
B1 | glycan array binding signal (z-score) | [11] | -0.103
same | glycan array binding signal (z-score) | [12] | 0.031
